## Primary screen of a compound library

Chains of the proteins cited; added tags and fusions are not shown. Residues count along the entry.
UniProt P9WPC5, whole entry: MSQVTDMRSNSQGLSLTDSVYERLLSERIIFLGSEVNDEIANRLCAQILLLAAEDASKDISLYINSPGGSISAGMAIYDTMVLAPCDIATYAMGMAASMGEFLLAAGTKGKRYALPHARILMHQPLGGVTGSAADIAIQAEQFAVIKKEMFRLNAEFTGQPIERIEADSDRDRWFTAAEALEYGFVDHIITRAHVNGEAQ
UniProt P9WPC3, whole entry partner: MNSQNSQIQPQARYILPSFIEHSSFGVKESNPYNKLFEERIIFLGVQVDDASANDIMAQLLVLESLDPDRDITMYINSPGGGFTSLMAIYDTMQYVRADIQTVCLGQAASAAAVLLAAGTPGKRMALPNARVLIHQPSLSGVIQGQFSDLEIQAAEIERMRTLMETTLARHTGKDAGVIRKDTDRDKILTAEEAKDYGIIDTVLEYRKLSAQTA
UniProt Q4DA54, 1-478: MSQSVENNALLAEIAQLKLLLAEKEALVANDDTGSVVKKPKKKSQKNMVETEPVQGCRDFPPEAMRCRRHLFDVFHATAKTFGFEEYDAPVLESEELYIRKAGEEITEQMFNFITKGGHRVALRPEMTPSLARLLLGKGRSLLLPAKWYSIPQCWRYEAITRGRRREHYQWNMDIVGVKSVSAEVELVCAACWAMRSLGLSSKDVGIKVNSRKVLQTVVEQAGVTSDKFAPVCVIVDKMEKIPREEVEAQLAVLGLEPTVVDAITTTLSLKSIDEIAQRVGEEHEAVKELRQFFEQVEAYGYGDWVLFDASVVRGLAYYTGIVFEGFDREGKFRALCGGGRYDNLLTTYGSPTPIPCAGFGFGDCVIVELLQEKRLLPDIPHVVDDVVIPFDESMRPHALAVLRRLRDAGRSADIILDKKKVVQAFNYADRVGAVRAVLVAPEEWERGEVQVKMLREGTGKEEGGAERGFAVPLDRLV
UniProt P9WNZ1, whole entry: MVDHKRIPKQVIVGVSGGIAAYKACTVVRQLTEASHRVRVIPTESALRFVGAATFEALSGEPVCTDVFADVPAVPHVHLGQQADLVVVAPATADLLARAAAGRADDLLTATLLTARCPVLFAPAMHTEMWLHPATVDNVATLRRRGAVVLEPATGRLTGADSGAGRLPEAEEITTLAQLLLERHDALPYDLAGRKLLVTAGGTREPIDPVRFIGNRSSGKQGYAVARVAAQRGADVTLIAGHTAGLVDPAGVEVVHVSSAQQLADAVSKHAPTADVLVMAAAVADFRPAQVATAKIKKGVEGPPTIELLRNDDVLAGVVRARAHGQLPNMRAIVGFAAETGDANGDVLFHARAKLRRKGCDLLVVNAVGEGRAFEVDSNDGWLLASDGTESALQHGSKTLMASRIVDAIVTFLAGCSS

The values are deposited in ChEMBL (CHEMBL3988442, “University of Dundee, Small-Polar-MMV Screening Library” (2021)).

Values are the deposited “Percent Effect”, in %.
The controls that fix the scale are not given in the record; negative values are as filed.
Compounds were drawn at random from those tested, without regard to their results.
Two or more numbers in one place are separate tests of the same structure; such repeats can differ widely.
A dash means the value is not listed here; it may have been measured.

A: 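Protease assay of ClpP1P2, read by the AMC dye that it sets free. Target: ClpP1P2, Mycobacterium tuberculosis (UniProt P9WPC5 and UniProt P9WPC3). Concentration: 50 µM. Higher reads as stronger inhibition, judged from the few compounds that gave an IC50. Most other retested compounds had strongly negative values. Size under these conditions: about 69,000 compounds, about 10 of them at 50% or above in at least one test.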
B: 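Assay of Toxoplasma gondii numbers, read through their beta-galactosidase reporter with a colour substrate. Compounds at 10 µM. Higher reads as fewer parasites (inferred from which compounds were picked for retests). About 67,000 compounds were tested under these conditions; 0.38% (about 260) showed 50% or more at least once.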
C: 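Cell assay of Leishmania donovani living inside macrophages; the read-out is not stated. Concentration: 30 µM. Higher reads as stronger inhibition (inferred: compounds with an IC50 in retests scored well above the rest). Of about 69,000 compounds tested this way, about 1,000 (1.5%) reached 50% or more in at least one test.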
D: 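Histidine-tRNA ligase, Trypanosoma cruzi CL Brener (UniProt Q4DA54). Enzyme assay of histidyl-tRNA synthetase; the read-out is not stated. Compounds at 30 µM. Direction is inferred from retests: higher values go with stronger inhibition. Of about 69,000 compounds tested this way, about 31 (0.045%) reached 50% or more in at least one test.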
E: 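Coenzyme A biosynthesis protein CoaBC, Mycobacterium tuberculosis (UniProt P9WNZ1). Enzyme assay of CoaBC with a phosphate dye (Biomol Green) read at 650 nm. Concentration: 30 µM. Direction is inferred from only a few compounds that gave an IC50; most scored high, so higher reads as stronger inhibition. Most strong results did not repeat in a second test. Of about 67,000 compounds tested this way, about 40 (0.06%) reached 50% or more in at least one test.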

compound,A,B,C,D,E
Cc1cccc(CN2CCOCC3(CCN(C4CCOCC4)C3)C2)c1.O=C(O)C(F)(F)F.O=C(O)C(F)(F)F (stereo not given),-,4.816,9.844,-,-
CC(=O)NS(=O)(=O)c1ccc(F)cc1C(F)(F)F,-17.53,1.142,-6.168,-0.4425,0
Cc1cccc(CN2CCc3nnc(CN4CCCCC4)n3CC2)n1,1.598,-,-,-0.9709,2.188
Cc1ccnc(N2CCC(=O)N(Cc3ccc(F)cc3)C(C(C)C)C2)n1 (stereo not given),-7.308,1.266,-30.41,7.921,2.121
COc1ccc(Cl)cc1-n1cnc(CCNC(C)=O)c1,-17.96,-,-8.852,4.598,0.615
CN(CC(=O)NC(C)(C)C)C(=O)C1CC(c2cccc(F)c2)=NO1 (stereo not given),2.878,27.02,-15.75,3.879,1.901
O=C(O)C(F)(F)F.O=C(O)C(F)(F)F.O=C(O)C(F)(F)F.[H][C@@]12CCCO[C@]1([H])[C@H](N(C)Cc1ccco1)CN2Cc1nccn1C,-,-32.23,-8.211,-,-
COc1cccc(CC(=O)N2CCC3(CC2)OCCCC3O)c1OC (stereo not given),-7.666,-3.965,27.33,1.22,-1.646
[H][C@@]12C[C@@H](C(=O)Nc3cccnc3)CN(Cc3nccs3)[C@]1([H])CCO2,-,4.102,10.45,-,-
CC(C)C(=O)N1CCN(Cc2ccccn2)CC2(CC(=O)N(C)C2)C1 (stereo not given),3.372,-,-,6.25,0.2353
Cc1cc(OCC(=O)N2CCCC(c3noc(C(C)C)n3)C2)no1 (stereo not given),-12.47,-12.33,-23.11,3.39,0.5222
O=C(NCc1cccnc1)Nc1ccn(CC(F)F)n1,1.373,2.373,4.89,7.006,-
CCOCCN1CCN(C(C)c2nc(C3CC3)no2)CC1 (stereo not given),4.319,38.89,0.4345,4.373,5.106
Cc1cccc(N2CC3(CCN(c4nncs4)C3)CC2=O)c1 (stereo not given),-9.954,7.427,3.808,4.673,2.963
CC(C)CCn1cc(C(=O)NC2CCS(=O)(=O)C2)c2ccccc2c1=O (stereo not given),6.321,-13.38,-13.27,-0.9901,1.446
Cc1nc(CN2CCCN(C(=O)C(C)OCC3CC3)CC2)cs1 (stereo not given),1.345,3.318,3.88,2.632,-1.828
Cn1cccc1CN1CCC2(CCCN(C(=O)Cc3cccnc3)C2)C1 (stereo not given),-6.226,-5.1,2.562,3.261,4.436
O=C(CN1CCCCC1Cn1cccn1)NC1CCOCC1 (stereo not given),-12.8,-10.51,1.92,4.124,-0.978
CCOCc1nc(CSc2ccncc2)n(C2CCN(C)CC2)n1,-2.423,3.68,35.38,1.064,4.819
CCc1ncc(C(=O)NC(C)(C)CC)s1,8.648,8.27,14.51,4.902,2.439
COc1cccc(CNC(C)C)c1OCc1ccc(C)cc1,-24.74,-,-,2.4,-28.35
Cc1nn(CC(C)C)c(N(C)C)c1CNCc1cccnc1N(C)C,1.283,2.7,6.419,4.511,6.524
CC(C)c1ccc(S(=O)(=O)NC2(CC(N)=O)CCC2)cc1,-8.738,-2.449,-8.208,0,0.9828
CCSc1nnc(N2CCN(c3ccccc3)CC2)s1,-1.259,-9.189,21.71,4.39,2.133
COCCNc1nnc(-c2ccccn2)s1,16.67,14.66,-25.7,1.88,10.02
CCOc1ccc(C#N)cc1NC(=O)N1CCC(n2cncn2)CC1,-5.802,3.972,12.25,4.741,1.901
CCCN1CCN(C(=O)CCn2cccc2)CC1,-9.712,-0.4174,1.624 & 3.095,12.2,5.316
O=C(O)C(F)(F)F.[H][C@@]12CCN(CC3CCOCC3)[C@@]1([H])CCN2C(=O)c1ccc(F)cc1,-,-5.97,24.16,-,-
Fc1cnc(N2CCCC3(COCCN(c4nccs4)C3)C2)nc1.O=C(O)C(F)(F)F.O=C(O)C(F)(F)F (stereo not given),-,8.026,38.85,-,-
O=C(O)[C@]12CCCN(Cc3ccncc3)C[C@H]1CN(c1ncccn1)C2,1.244,-,-,4.478,-0.6452
Cc1cccc(Nc2cc(C)nc(C3CCN(C(C)C)C3)n2)n1.O=CO (stereo not given),-,-38.76,20.58,-,-
Cc1cnc(N(C)CCCc2cnn(C)c2)nc1N(C)C,21.49,26.43,35.08,3.96,0.241
CN(C)CCOCC1CN(C(=O)c2cccn2C)Cc2ccnn2C1.O=C(O)C(F)(F)F.O=C(O)C(F)(F)F (stereo not given),-,-0.6761,-11.09,-,-
O=C(N1CCCC1)N1CCC(Nc2ccncn2)CC1,-3.43,-3.743,11.38,4.598,5.6
Cc1cccc(C(=O)N2C[C@@H]3OCCN(CCN4CCCC4)[C@@H]3C2)n1,-1.683,-,-,9.804,5.25
COc1cc(C(=O)N2CCCS2(=O)=O)ccc1C,1.759,-2.731,-30.96,-1.132,7.171
COc1cc(CN2CCCC2)ccc1Oc1ccc2c(c1)CC(CN)O2 (stereo not given),-40.62,-27.43,17.75,1.932,3.602
COc1cccc(CNCc2c(C(C)C)nn(C)c2N(C)C)c1,-7.3,7.201,16.9,6.471,6.138
CCC1CCCCCN1C(=O)c1nnc2ccccc2c1N (stereo not given),2.661,1.357,24.91,5.435,4.723
CCOCC1CC2(CCN(C(=O)C3CCSCC3)CC2)CO1 (stereo not given),0.0823,11.27,-3.055,3.743,-1.667
COCCN1CCCc2sc(C(=O)N3CCCN(C)CC3)nc21,-4.154,-,-,6.452,-31.5
COc1ccccc1N1CCC(CNS(=O)(=O)c2cccs2)C1 (stereo not given),0.527,-0.9119,21,17.65,-1.966
CCCn1ncnc1C(C)NC(=O)CC1CCN(C(C)C)CC1 (stereo not given),5.19,1.032,-56.56,2.174,-2.336
CC(C)N(CC(N)=O)Cc1csc(Cc2ccccc2)n1,6.387,-,-38.19,4.511,2.828
CC(C)n1cc(CN2CCCN(C(=O)c3cc(Cl)c[nH]3)CC2)cn1,4.407,9.477,43.14,3.008,4.864
CCN1CCN(C2(C(=O)NC3CCCC3)Cc3ccccc3C2)CC1,-8.944,-11.62,-0.9914,6.061,2.357
Cc1nc2ccccc2c(=O)n1CCC(=O)N1CCNC(=O)C1,4.516,-18.63,-8.95,1.901,1.862